No constants are given. Whether binding was seen depends on the method and setting. In cells and extracts the contact can be indirect. These calls come from enrichment with a bait or labelling near it, and not all partners need be listed. Where a sequence is shown, tags or fusion partners need not be part of it.
Molecular target: T1, N-FLAG-2xSTREP-SEPT6 (UniProt Q14141)
T1 sequence: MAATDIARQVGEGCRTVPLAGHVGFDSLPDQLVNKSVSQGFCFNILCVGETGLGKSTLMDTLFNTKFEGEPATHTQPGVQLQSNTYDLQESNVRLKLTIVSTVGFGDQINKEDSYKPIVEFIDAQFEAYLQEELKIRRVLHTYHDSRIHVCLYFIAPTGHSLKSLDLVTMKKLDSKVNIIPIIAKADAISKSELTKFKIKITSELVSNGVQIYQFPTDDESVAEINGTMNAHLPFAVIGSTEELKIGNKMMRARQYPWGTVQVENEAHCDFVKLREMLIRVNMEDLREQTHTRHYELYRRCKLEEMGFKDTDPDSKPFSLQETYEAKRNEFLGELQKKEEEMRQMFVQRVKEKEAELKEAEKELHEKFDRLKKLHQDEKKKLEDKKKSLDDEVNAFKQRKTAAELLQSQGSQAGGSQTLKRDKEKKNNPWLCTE
Assay: affinity purification with mass spectrometry; tandem affinity purification of FLAG-2xSTREP-SEPT6 from lysates of transfected HeLa cells (ANTI-FLAG M2 magnetic beads, 3xFLAG peptide elution, then STREP-Tactin magnetic beads, 2 h each at room temperature); lysis buffer 10 mM Tris/Cl pH 7.5, 150 mM NaCl, 0.5 mM EDTA, 0.5% Triton X-100; cells infected with S. flexneri M90T AfaI for 4 h (septins also found in transfected non-infected cells)

binding: binds
B1: SEPT11 (protein, UniProt Q9NVA2 1-429)
chain: MAVAVGRPSNEELRNLSLSGHVGFDSLPDQLVNKSTSQGFCFNILCVGETGIGKSTLMDTLFNTKFESDPATHNEPGVRLKARSYELQESNVRLKLTIVDTVGFGDQINKDDSYKPIVEYIDAQFEAYLQEELKIKRSLFNYHDTRIHACLYFIAPTGHSLKSLDLVTMKKLDSKVNIIPIIAKADTIAKNELHKFKSKIMSELVSNGVQIYQFPTDEETVAEINATMSVHLPFAVVGSTEEVKIGNKMAKARQYPWGVVQVENENHCDFVKLREMLIRVNMEDLREQTHTRHYELYRRCKLEEMGFKDTDPDSKPFSLQETYEAKRNEFLGELQKKEEEMRQMFVMRVKEKEAELKEAEKELHEKFDLLKRTHQEEKKKVEDKKKELEEEVNNFQKKKAAAQLLQSQAQQSGAQQTKKDKDKKNASFT
